Results are given in words; binding and its absence hold for the method and conditions named. In cells and extracts the contact can be indirect. Some entries that bind do so weakly or less than the wild type. For part of these data: Where a sequence is shown, tags or fusion partners need not be part of it.
What was measured:
[1] = target: Flag-SNAI1 (pcDNA3.1-3×Flag-SNAI1) (UniProt O95863); test: co-IP; GFP-tagged truncations of PPIL2 or of SNAI1 expressed in T47D cells (Fig. 3e, f)
[2] = target: endogenous SNAI1 (human (endogenous in T47D)) (UniProt O95863); test: co-IP; endogenous PPIL2 and SNAI1 in T47D cells (Fig. 3c, d)
[3] = target: GST-SNAI1 fusion protein (UniProt O95863); test: pull-down; Pierce GST Protein Interaction Pull-Down Kit; purified GST-SNAI1 immobilised on the spin column; PPIL2 blotted from MCF-7 cell lysate; only the target purified

Chains of the proteins cited; added tags and fusions are not shown. Lines headed by an entry give the natural chain unless they say otherwise; changes in a name come on top.
UniProt O95863: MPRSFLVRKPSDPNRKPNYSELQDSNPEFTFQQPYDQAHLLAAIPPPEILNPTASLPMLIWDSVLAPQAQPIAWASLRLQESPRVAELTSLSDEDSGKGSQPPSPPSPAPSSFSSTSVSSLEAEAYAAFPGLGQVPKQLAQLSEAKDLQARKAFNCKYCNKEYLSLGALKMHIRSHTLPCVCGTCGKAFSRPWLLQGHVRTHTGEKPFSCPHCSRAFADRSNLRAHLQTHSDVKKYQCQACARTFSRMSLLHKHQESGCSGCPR

binding [1] | binding [2] | binding [3] | Binder
binds | – | – | GFP-PPIL2-Ubox (domain or fragment, UniProt Q13356 35-108) RRLPFDHCSLSLQPFVYPVCTPDGIVFDLLNIVPWLKKYGTNPSNGEKLDGRSLIKLNFSKNSEGKYHCPVLFT
– | binds | binds | endogenous PPIL2 (enzyme, UniProt Q13356 1-520) MGKRQHQKDKMYITCAEYTHFYGGKKPDLPQTNFRRLPFDHCSLSLQPFVYPVCTPDGIVFDLLNIVPWLKKYGTNPSNGEKLDGRSLIKLNFSKNSEGKYHCPVLFTVFTNNTHIVAVRTTGNVYAYEAVEQLNIKAKNFRDLLTDEPFSRQDIITLQDPTNLDKFNVSNFYHVKNNMKIIDPDEEKAKQDPSYYLKNTNAETRETLQELYKEFKGDEILAATMKAPEKKKVDKLNAAHYSTGKVSASFTSTAMVPETTHEAAAIDEDVLRYQFVKKKGYVRLHTNKGDLNLELHCDLTPKTCENFIRLCKKHYYDGTIFHRSIRNFVIQGGDPTGTGTGGESYWGKPFKDEFRPNLSHTGRGILSMANSGPNSNRSQFFITFRSCAYLDKKHTIFGRVVGGFDVLTAMENVESDPKTDRPKEEIRIDATTVFVDPYEEADAQIAQERKTQLKVAPETKVKSSQPQAGSQGPQTFRQGVGKYINPAATKRAAEEEPSTSATVPMSKKKPSRGFGDFSSW

Reference: article PMC5833831
